Experimental data reported in patent US12473250B2, “Molecular design of new antibiotics and antibiotic adjuvants against MCR strains” (priority 2019, dated 2025).
Some results were stated once for a whole list of compounds, not compound by compound. For at least one compound, name, drawing or mass did not settle the structure.

Experiments:
[1] = system: colistin resistant MCR (+) E. Coli strains; test: Synergy study: colistin MIC in the presence of compound; format: cell-based; conditions: E. coli with the mcr-1 mutation
Experimental: (§1) The MICs of the individual drugs and LC compound in combinations were determined using the broth microdilution technique as recommended by the CLSI whereby the two anti-microbial agents were added in an equal amount. (e.g.: 50 μL of Colistin: 50 μL of LC compounds). Diluted media containing compounds and antibiotics will be serially diluted 2-fold, and LC compounds and antibiotics alone or in combination will be assayed at fixed synergy concentration. In all cases, the lowest concentration at which no visible growth occurred was be recorded to be the MIC value of individual and combined antibacterial agents. The results were obtained after 24 hours of incubation.

[2] = system: 6083655967 [MCR 1+; E.Coli]; test: Synergistic study between LC100 or LC101 with B2088; format: cell-based; conditions: killing E. coli with the mcr-1 mutation
Experimental: as §1
Using the combination of LC100 and colistin, the activity of a broad range of strains was further tested (Table 7).

Structure (SMILES): CCN(CC)CCCCOc1ccc(/C=C/C(=O)c2ccc(OCCCCN(CC)CC)c(CC=C(C)C)c2O)cc1 [LC100]
- colistin MIC when used in conjunction with LC100 or LC101 [1]: less than 0.5 μg/ml
- increase of the activity with B2088 [2]: more than 10 times

Structure (SMILES): COC(=O)C(CCCNC(=N)N)NC(=O)COc1ccc(/C=C/C(=O)c2ccc(OCC(=O)NC(CCCNC(=N)N)C(=O)OC)c(CC=C(C)C)c2O)cc1 (stereo not shown) [LC101]
- colistin MIC when used in conjunction with LC100 or LC101 [1]: less than 0.5 μg/ml
- increase of the activity with B2088 [2]: more than 10 times
